Laboratory results reported in PubChem BioAssay AID1117319 (Southern Research Institute, 2015).
About 1,500 (0.58%) of roughly 260,000 compounds were called active. The shares of active, inactive and inconclusive entries below differ from those in the screen.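 The calls were made as follows: active = inhibition above a set limit at one or more doses, reproduced on every date tested; inconclusive = results disagree between test dates, or hit never tested in dose response; inactive = the rest.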

Sequences of proteins named here, by UniProt entry; tags and fusion partners are left off. A change or cut given only in a name is not applied to a line headed by its entry.
UniProt P69720: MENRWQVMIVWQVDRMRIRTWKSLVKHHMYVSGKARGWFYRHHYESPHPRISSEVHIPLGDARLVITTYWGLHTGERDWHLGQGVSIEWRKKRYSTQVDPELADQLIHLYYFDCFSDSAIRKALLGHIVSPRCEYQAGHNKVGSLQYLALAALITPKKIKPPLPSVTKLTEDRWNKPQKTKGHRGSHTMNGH
UniProt P69721: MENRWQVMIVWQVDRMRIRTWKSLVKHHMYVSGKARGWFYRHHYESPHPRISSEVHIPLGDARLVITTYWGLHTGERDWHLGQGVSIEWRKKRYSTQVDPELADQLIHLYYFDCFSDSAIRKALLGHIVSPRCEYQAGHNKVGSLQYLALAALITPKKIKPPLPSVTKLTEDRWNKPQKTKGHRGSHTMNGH
UniProt P69722: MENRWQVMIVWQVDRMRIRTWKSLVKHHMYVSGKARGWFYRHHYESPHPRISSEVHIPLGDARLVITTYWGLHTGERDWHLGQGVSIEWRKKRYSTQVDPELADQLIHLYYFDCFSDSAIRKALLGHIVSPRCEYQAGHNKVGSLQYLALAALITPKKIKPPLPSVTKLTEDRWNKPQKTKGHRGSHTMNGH
UniProt P69723: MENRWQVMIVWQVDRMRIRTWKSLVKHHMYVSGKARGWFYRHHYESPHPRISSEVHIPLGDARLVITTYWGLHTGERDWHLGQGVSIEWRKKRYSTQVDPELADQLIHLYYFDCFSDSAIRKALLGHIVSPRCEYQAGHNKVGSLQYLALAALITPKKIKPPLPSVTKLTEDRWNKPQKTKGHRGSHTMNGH
UniProt Q9HC16: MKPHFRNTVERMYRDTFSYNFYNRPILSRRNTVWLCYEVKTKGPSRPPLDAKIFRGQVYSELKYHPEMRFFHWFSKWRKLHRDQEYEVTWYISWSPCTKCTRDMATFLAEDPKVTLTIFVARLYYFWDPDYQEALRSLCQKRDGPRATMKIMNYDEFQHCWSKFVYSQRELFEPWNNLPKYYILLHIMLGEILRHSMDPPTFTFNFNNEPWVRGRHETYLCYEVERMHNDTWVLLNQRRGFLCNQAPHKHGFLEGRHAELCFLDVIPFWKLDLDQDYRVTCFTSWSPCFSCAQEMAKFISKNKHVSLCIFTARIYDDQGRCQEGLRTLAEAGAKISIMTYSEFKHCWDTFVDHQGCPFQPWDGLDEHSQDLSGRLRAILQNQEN

Each compound was assayed against Virion infectivity factor (Human immunodeficiency virus type 1 group M subtype B (isolate BH10)) + Virion infectivity factor (Human immunodeficiency virus type 1 group M subtype B (isolate BRU/LAI)) + Virion infectivity factor (Human immunodeficiency virus type 1 group M subtype B (isolate PCV12)) + Virion infectivity factor (Human immunodeficiency virus type 1 group M subtype B (isolate HXB2)) + DNA dC->dU-editing enzyme APOBEC-3G (Homo sapiens) (UniProt P69720+P69721+P69722+P69723+Q9HC16) (assay: inhibitors of Vif binding to APOBEC3G peptide, primary screen, biochemical, TR-FRET, GST-Vif 1-94, biotin-A3G peptide, dose response retest (AID 1117319;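 also: Vif residues 1-94 fused to GST binding biotinylated APOBEC3G peptide 110-148; 0% = full assay without inhibitor and 100% = GST in place of GST-Vif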)). Conditions: hits give high values.
O=C(O)C1CCCN(S(=O)(=O)c2cccc3cccnc23)C1 (configuration not stated) was tested, and the inhibition was inconclusive: 42.2%.
In the case of O=C(Cn1cnc2c(oc3ccccc32)c1=O)NCC1CCCO1 (configuration not stated), the inhibition is reported as inconclusive: 34.9%.
In the case of O=C(CN(Cc1ccc(F)cc1)S(=O)(=O)c1ccc(S(=O)(=O)N2CCOCC2)cc1)Nc1ccccc1, the inhibition is reported as inconclusive: 43.2%.
With Cc1nn(Cc2c(Cl)cccc2Cl)c(C)c1NC(=O)Cn1nc([N+](=O)[O-])c(Cl)c1C the inhibition was inconclusive: 43.4%.
In the case of CCOc1ccc(C2C=C(c3ccc(C)cc3)Nc3ncnn32)cc1 (configuration not stated), the inhibition is reported as inconclusive: 34.6%.
COC(=O)/C(=C/c1ccco1)NC(=O)c1ccco1 was tested, and the inhibition was inconclusive: 41.6%.
In the case of CCOC(=O)c1c(/N=C/C2=C(O)CCCC2=O)sc2c1CCCC2, the inhibition is reported as inconclusive: 54%.
COC(=O)C1=C(C)N(Cc2ccc(OC)cc2)C(=O)C1 was tested, and the inhibition was inconclusive: 34.4%.
O=S(=O)(/N=C(/Nc1cc(N2CCOCC2)ncn1)c1ccc(F)cc1)c1ccccc1 was tested, and the inhibition was inconclusive: 33.3%.
In the case of COc1ccc(NC(=O)N(C2CCCCC2)C2CCN(C(C)C)CC2)c(OC)c1, the inhibition is reported as inconclusive: 32.2%.
For O=C(c1ccc(Br)o1)N1CCN(C/C=C/c2ccccc2)CC1, the inhibition was inactive: 2.12%.
With COc1ccc(CNC(=O)c2cc(=O)c3ccccc3o2)cc1 the inhibition was inactive: 4.03%.
COc1ccc2c(c1)[nH]c1c(=O)n(CCN(C)C)cnc12 was tested, and the inhibition was inconclusive: 33.1%.
COc1ccc(S(=O)(=O)N2CCC(C(=O)N3CCOCC3)CC2)cc1 was tested, and the inhibition was inconclusive: 39.4%.
In the case of CSc1c(-c2ccccn2)c(N)nn1C(=O)C1CCC1, the inhibition is reported as inconclusive: 46.6%.
With Cn1cccc1CC(=O)NNC(=S)Nc1ccccc1Cl the inhibition was inconclusive: 51.5%.
In the case of CC(=O)N1CCN(c2ccc(S(=O)(=O)N3CCCCC3)cn2)CC1, the inhibition is reported as inconclusive: 35%.
With Cc1ccc(-n2nc(C(=O)O)c(O)cc2=O)cc1 the inhibition was inconclusive: 54%.
COc1ccccc1NC(=O)CSCc1ccc([N+](=O)[O-])cc1 was tested, and the inhibition was inconclusive: 34.5%.
In the case of Cc1ccc(Oc2cc(NC(=O)CCCn3nc([N+](=O)[O-])c(Cl)c3C)cc([N+](=O)[O-])c2)cc1, the inhibition is reported as inconclusive: 44%.
With N#Cc1nc(COc2cccc(Cl)c2)oc1NCc1ccncc1 the inhibition was inconclusive: 40.5%.
In the case of CS(=O)(=O)N(CCC#N)Cc1ccc(C=O)o1, the inhibition is reported as inactive: -8.77%.
With CCCOCC1CC2(CC(C)(c3csc(N)n3)OC2=O)C(=O)O1 (configuration not stated) the inhibition was inconclusive: 44.4%.
With CCCCOCCCn1cnc2c([nH]c3cc(OC)ccc32)c1=O the inhibition was inconclusive: 33%.
With O=C(Cc1ccccc1)Nc1cc([N+](=O)[O-])ccc1N1CCOCC1 the inhibition was inconclusive: 52.2%.
For COc1ccc(CSc2nnnn2Cc2ccccc2)cc1OC, the inhibition was inconclusive: 37.2%.
With COc1ccc(OCC(O)CN2CCN(c3ncccn3)CC2)cc1 (configuration not stated) the inhibition was inconclusive: 33.9%.
In the case of Cc1cccc(NC(=O)CSc2nc3ccccc3o2)c1, the inhibition is reported as inconclusive: 41.2%.
COc1cccc(-c2nn(-c3ccccc3)cc2CNC(C)Cn2cncn2)c1 (configuration not stated) was tested, and the inhibition was inconclusive: 43.4%.
For O=C(COc1ccccc1)N/N=C/c1ccc(O[C@@H]2O[C@H](CO)[C@@H](O)[C@H](O)[C@H]2O)cc1, the inhibition was inconclusive: 38.4%.
For O=C(O)c1cc(-c2ccc(/C=N/Nc3ccc([N+](=O)[O-])cn3)o2)ccc1Cl, the inhibition was inactive: 5.44%.
With COC(=O)c1cc(O)c(O)c(O)c1 the inhibition was inactive: 16.7%.
With O=C(N/C(=C\c1ccco1)C(=O)N1CCCC1)c1cccs1 the inhibition was inconclusive: 34.6%.
Cc1cccc2c1NC(=O)C21N2CCCC2C(C(=O)c2ccc3ccccc3c2)C12C(=O)Nc1ccccc12 (configuration not stated) was tested, and the inhibition was inconclusive: 47.7%.
O=C(COC(=O)CCCSc1nc2ccccc2[nH]1)Nc1cccc(F)c1 was tested, and the inhibition was inactive: -3.43%.
In the case of Cc1ccc(S(=O)(=O)[N-]c2nc3ccccc3nc2-n2cc[n+](Cc3ccccc3)c2)cc1, the inhibition is reported as inconclusive: 46.5%.
In the case of NC1=NC2(CCCCC2)N=C(Nc2ccc(Br)cc2)N1, the inhibition is reported as inconclusive: 33%.
CCN1C(=O)/C(=C/c2ccc(C)o2)N(C)C1=S was tested, and the inhibition was inconclusive: 50.3%.
CCN(CCn1cccn1)C(=O)CCc1nnc(-c2ccc3c(c2)OCO3)o1 was tested, and the inhibition was inconclusive: 46%.
With CCN(CC)CCN1C(=O)c2ccccc2NC1c1ccc(Br)cc1 (configuration not stated) the inhibition was inconclusive: 35.1%.
For COc1ccc(-c2[nH]ncc2CNCC(C)(C)N2CCOCC2)cc1F, the inhibition was inconclusive: 44.1%.
In the case of CCOC(=O)C1CCN(CC(O)COCc2ccc(Cl)cc2)CC1 (configuration not stated), the inhibition is reported as inactive: 8.82%.
For C=C(C)c1cccc(C(C)(C)NC(=O)N(C)C2CCN(C)CC2)c1, the inhibition was inconclusive: 59.4%.
In the case of S=C(NCCN1CCOCC1)N/N=C/c1ccccc1, the inhibition is reported as inactive: 0.06%.
With Cc1ccc(C)c(N2CCN(S(=O)(=O)c3ccc4c(c3)oc(=O)n4C)CC2)c1 the inhibition was inconclusive: 47.8%.
For O=C(N/N=C\c1ccc(F)cc1)c1ccc(F)cc1, the inhibition was inconclusive: 50.4%.
CN1CCN(c2nc3ccccc3nc2NS(=O)(=O)c2ccc(Br)cc2)CC1 was tested, and the inhibition was inactive: 4.67%.
With O=C(NCc1ccco1)C1CCCN1C(=O)NCc1ccccc1 (configuration not stated) the inhibition was inconclusive: 57.6%.
With CCOc1ccccc1NC(=O)Cn1c(=O)n(CCC(=O)NC2CCCC2)c(=O)c2ccccc21 the inhibition was inconclusive: 33.7%.
With Cc1ccc(-c2cc(-c3ccc(F)cc3)nc(N)c2C#N)o1 the inhibition was inconclusive: 45.1%.
For O=C(CN1CCOCC1)N/N=C/c1ccco1, the inhibition was inconclusive: 36.9%.
CCOC(=O)N1CCC(NC(=O)c2ccc(OC)c(CN3CC(=O)N4CCCC4C3=O)c2)CC1 (configuration not stated) was tested, and the inhibition was inconclusive: 63.7%.
In the case of CC(Nc1ccc(N2CCOCC2)cc1)C(=O)N1c2ccccc2CC1C (configuration not stated), the inhibition is reported as inconclusive: 43.4%.
With Cc1cc(=O)[nH]c(SCC(=O)Nc2ccc(S(=O)(=O)N3CCCCC3)cc2)n1 the inhibition was inconclusive: 35.1%.
With COc1ccc(-c2noc(CCC(=O)N3CCN(c4cc(C)ccc4C)CC3)n2)cc1 the inhibition was inconclusive: 37.4%.
In the case of COc1ccc(/C=N/OC/C(O)=C(\C#N)c2nc3ccccc3[nH]2)cc1OC, the inhibition is reported as inconclusive: 56.7%.
In the case of Nc1cc(CN2C(=O)c3ccccc3C2=O)cc(Cl)c1O, the inhibition is reported as inconclusive: 37.8%.
